PMC2672601

T1: VGluRδ2 (fusion between Venus and the glutamate receptor delta2, GluRδ2) (UniProt Q61625)
T1 sequence: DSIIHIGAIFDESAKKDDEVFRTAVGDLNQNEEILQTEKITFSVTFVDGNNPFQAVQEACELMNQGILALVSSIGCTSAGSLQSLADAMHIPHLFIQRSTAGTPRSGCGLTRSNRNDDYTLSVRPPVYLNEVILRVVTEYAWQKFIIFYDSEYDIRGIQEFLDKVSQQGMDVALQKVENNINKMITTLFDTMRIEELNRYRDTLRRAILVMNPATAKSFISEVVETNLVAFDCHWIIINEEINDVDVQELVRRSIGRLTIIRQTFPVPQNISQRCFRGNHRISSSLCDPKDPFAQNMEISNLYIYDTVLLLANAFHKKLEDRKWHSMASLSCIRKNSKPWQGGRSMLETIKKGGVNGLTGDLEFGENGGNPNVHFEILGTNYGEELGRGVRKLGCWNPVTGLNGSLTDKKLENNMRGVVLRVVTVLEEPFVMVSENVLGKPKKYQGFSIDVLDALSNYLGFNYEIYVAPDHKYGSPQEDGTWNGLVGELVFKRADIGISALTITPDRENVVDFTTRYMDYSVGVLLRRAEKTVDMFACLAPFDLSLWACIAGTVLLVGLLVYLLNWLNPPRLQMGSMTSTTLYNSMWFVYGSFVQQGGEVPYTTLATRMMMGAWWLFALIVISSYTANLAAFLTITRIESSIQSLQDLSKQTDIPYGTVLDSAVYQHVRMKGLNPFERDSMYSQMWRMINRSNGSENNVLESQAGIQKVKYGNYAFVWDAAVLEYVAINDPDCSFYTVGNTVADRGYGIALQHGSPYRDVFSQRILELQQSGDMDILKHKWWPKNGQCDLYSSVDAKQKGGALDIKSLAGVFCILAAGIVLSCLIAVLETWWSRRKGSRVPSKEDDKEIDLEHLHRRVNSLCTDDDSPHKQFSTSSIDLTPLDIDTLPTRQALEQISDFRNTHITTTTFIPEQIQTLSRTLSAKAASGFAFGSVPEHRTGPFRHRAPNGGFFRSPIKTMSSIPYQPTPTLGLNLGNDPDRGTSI

B1: Shank2 (protein, UniProt Q80Z38 1-1476)
chain: MKSLLNAFTKKEVPFREAPAYSNRRRRPPNTLAAPRVLLRSNSDNNLNAGAPEWAVCSAATSHRSLSPQLLQQTPSKPDGATKSLGSYTPGPRSRSPSLNRLGGTAEDGKRTQPHWHVGSPFTPGANKDSLSTFEYPGPRRKLYSAVPGRLFVAVKPYQPQVDGEIPLHRGDRVKVLSIGEGGFWEGSARGHIGWFPAECVEEVQCKPRDSQAETRADRSKKLFRHYTVGSYDSFDAASDCIIEDKTVVLQKKDNEGFGFVLRGAKADTPIEEFTPTPAFPALQYLESVDEGGVAWQAGLRTGDFLIEVNNENVVKVGHRQVVNMIRQGGNHLILKVVTVTRNLDPDDTARKKAPPPPKRAPTTALTLRSKSMTAELEELGLSLVDKASVRKKKDKPEEIVPASKPSRTAENVAIESRVATIKQRPTSRCFPAASDVNSVYERQGIAVMTPTVPGSPKGPFLGLPRGTMRRQKSIDSRIFLSGITEEERQFLAPPMLKFTRSLSMPDTSEDIPPPPQSVPPSPPPPSPTTYNCPRSPTPRVYGTIKPAFNQNPVVAKVPPATRSDTVATMMREKGMFYRRELDRFSLDSEDVYSRSPAPQAAFRTKRGQMPENPYSEVGKIASKAVYVPAKPARRKGVLVKQSNVEDSPEKTCSIPIPTIIVKEPSTSSSGKSSQGSSMEIDPQATEPGQLRPDDSLTVSSPFAAAIAGAVRDREKRLEARRNSPAFLSTDLGDEDVGLGPPAPRMQASKFPEEGGFGDEDETEQPLLPTPGAAPRELENHFLGGGEAGAQGEAGGPLSSTSKAKGPESGPAAPLKSSSPAGPENYVHPLTGRLLDPSSPLALALSARDRAMQESQQGHKGEAPKADLNKPLYIDTKMRPSVESGFPPVTRQNTRGPLRRQETENKYETDLGKDRRADDKKNMLINIVDTAQQKSAGLLMVHTVDVPMAGPPLEEEEDREDGDTKPDHSPSTVPEGVPKTEGALQISAAPEPAVAPGRTIVAAGSVEEAVILPFRIPPPPLASVDLDEDFLFTEPLPPPLEFANSFDIPDDRAASVPALADLVKQKKNDTSQPPTLNSSQPANSTDSKKPAGISNCLPSSFLPPPESFDAVTDSGIEEVDSRSSSDHHLETTSTISTVSSISTLSSEGGESMDTCTVYADGQAFVVDKPPVPPKPKMKPIVHKSNALYQDTLPEEDTDGFVIPPPAPPPPPGSAQAGVAKVIQPRTSKLWGDVPEVKSPILSGPKANVISELNSILQQMNRGKSVKPGEGLELPVGAKSANLAPRSPEVMSTVSGTRSTTVTFTVRPGTSQPITLQSRPPDYESRTSGPRRAPSPVVSPTELSKEILPTPPPPSATAASPSPTLSDVFSLPSQSPAGDLFGLNPAGRSRSPSPSILQQPISNKPFTTKPVHLWTKPDVADWLESLNLGEHKETFMDNEIDGSHLPNLQKEDLIDLGVTRVGHRMNIERALKQLLDR
B2: synaptojanin 2 (enzyme, UniProt Q9D2G5 1-1434)
chain: MALSKGLRLLARLDPTGPSSVLLEARGRGDCLLFEAGAVATLAPEEKEVIKGLYSKLTDAYGCLGELRLQSGGVPLSFLVLVTGCMSVGRIPDAEIYKITATELYPLQEEAKEEDRLPTLKKILSSGVFYFAWPNDGACFDLTIRAQKQGDDGSEWGTSFFWNQLLHVPLRQHQVNCHNWLLKVICGVVTIRTVYASHKQAKACLISRISCERAGARFLTRGVNDDGHVSNFVETEQTIYMDDGVSSFVQIRGSVPLFWEQPGLQVGSHHLRLHRGLEANAPAFERHMVLLKEQYGKQVVVNLLGSRGGEEVLNRAFKKLLWASCHAGDTPMINFDFHQFAKGRKLEKLENLLRPQLQLHWEDFGVFAKGENVSPRFQKGTLRMNCLDCLDRTNTVQCFIALEVLHLQLESLGLNSKPIIDRFVESFKAMWSLNGHSLSKVFTGSRALEGKAKVGKLKDGARSMSRTIQSNFFDGVKQEAIKLLLVGDVYNEESTDKGRMLLDNTALLATPRILKAMTERQSEFTNFKRIQIAVGTWNVNGGKQFRSNLLGTAELTDWLLDAPQLSGAVDSQDDGSPADVFAIGFEEMVELSAGNIVNASTTNRKMWGEQLQKAISRSHRYILLTSAQLVGVCLYIFVRPYHVPFIRDVAIDTVKTGMGGKAGNKGAVGIRFQLHSTSFCFVCSHLTAGQSQVKERNEDYREITHKLSFPSGRNIFSHDYVFWCGDFNYRIDLTYEEVFYFVKRQDWKKLMEFDQLQLQKSSGKIFKDFHEGAVNFGPTYKYDVGSAAYDTSDKCRTPAWTDRVLWWRKKHPYDKTAGELNLLDSDLDGDPQIRHTWSPGTLKYYGRAELQASDHRPVLAIVEVEVQEVDVGARERVFQEVSSVQGPLDATVVVNLQSPTLEEKNEFPEDLRTELMQTLGNYGTIILVRINQGQMLVTFADSHSALSVLDVDGMKVKGRAVKIRPKTKDWLEGLREELLRKRDSMAPVSPTANSCLLEENFDFSSLDYESEGDVLEEDEDYLVDGFGQPVVSDSELGGDNSSDTMSSLTPASKSPALAKKKQHPTYKAGLMVKKSASDASISSGTHGQYSILQTAKLLPGAPQQPPKARTGISKPYNVKQIKTTNAQEAEAAIRCLLEASGGVPESAPGAIPLRNQGSSKPEATLGPPALPRRPAPRVPTMKKPTLRRTGKPMLPEENFEPQPVHFTMASQEMNLETPPPITATPIPPVPKPRTLQPGKGVEGRPSSGKPEPDEAPSVTGTVESPPPEAQEAPSLAPKVPPRRKKSAPAAFHLQVLQNNSQVLQGLTCSSSSPPSLKPDTHPLCLQVALGTSSARSPETHGPRVTEPEAASFHGNYPDPFWSLLHHPKLLNNTWLSKSSEPLDVGSRNPERTHTEPAQVNASLAERGLPPDHGGKDLSHWVTASNKDKRTTLGV
B3: Plekha7 (protein, UniProt Q3UIL6 1-1118)
chain: MAAAVGRDTLPEHWSYGVCRDGRVFFINDQLRCTTWLHPRTGEPVNSGHMIRSDLPRGWEEGFTEEGASFFIDHNQQTTTFRHPVTGQFSSENSEYVLREEPHPHMSKPERNQRPSSMVSETSTAGTTSTLEAKPGPKIVKSSSKVHSFGKRDQAIRRNLNVPVVVRGWLHKQDSSGMRLWKRRWFVLADYCLFYYKDSREEAVLGSIPLPSYVISPVAPEDRISRKYSFKAVHTGMRALIYSTTTAGSQMEHSGMRTYYFSADTLEDMNAWVRAMNQAAQVLSRSSLRRDVDKVERQAMPQANHTDACQECGHVGPGHSRDCPRRGYEDSYGFNRREQEEERFRAQRDPLEGRRDRSKARSPYLPAEEDALFVDLPGGPRGQQAQPQRAEKNGVPPYGLGEQNGTNGYQRTAPPRANPEKHSQRKTGLAQAEHWTKAQKGDGRSLPLDQTLPRQGPSQPLSFPENYQSLPKSTRHLSGSSSPPPRNLPSDYKYAQDRASHLKMSSEERRAHRDGTVWQLYEWQQRQQFRHGSPTAPIGAGSPEFTEQGRSRSLLEVPRSISVPPSPSDIPPPGPPRPFPPRRPHTPAERVTVKPPEQRRSVDISLGGSPRKARGHAAKNSSHVDRRSMPSMGYMTHTVSAPSLHGKSADDTYLQLKKDLEYLDLKMTGRDLLKDRSLKPMKIAESDIDVKLSIFCEQDRILQDLEDKIRALKENKDQLESVLEVLHRQTEQYRDQPQHLEKITCQQRLLQEDLVHIRAELCRESTEMENAWNEYLKLEKDVEQLKQTLQEQHRRAFFFQEKSQIQKDLWRIEDVMAGLSANKENYRVLVGSVKNPERKTVPLFPHPSVPSLSPTESKPALQPSPPTSPVRTPLEVRLFPQLQTYVPYRPHPPQLRKVMSPLQSPTKAKPQAEDEAPPRPPLPELYSPEDQPPAVPPLPREATIIRHTSVRGLKRQSDERKRDREQGQCVNGDLKVELRSYVSEPELASLSGDVPQPSLSLVGSESRYQTLPGRGLSGSTSRLQQSSTIAPYVTLRRGLNAENSSATFSRPKSALERLYSGDHQRGKMSAEEQLERMKRHQKALVRERKRTLSQGEKTGLLSARYLSQPLPGDLGSVC

biological target: T1, VGluRδ2 (fusion between Venus and the glutamate receptor delta2, GluRδ2); assay: affinity purification with mass spectrometry; same anti-GFP affinity purification of pooled synaptic fractions (samples pooled from 30 and from 50 Pcp2/VGluRδ2 cerebella); SDS-PAGE, in-gel trypsin digestion, MALDI QqTOF MS and MALDI-IT MS/MS; control isolates from Pcp2/eGFP mice

binding, binds:
B1
B2
B3

No constants are given. Whether binding was seen depends on the method and setting. Binding seen in cells or lysates may run through a third protein. Here binding means that the protein was enriched with, or labelled near, the bait; the list need not be complete. Tags and fused reporters may be left off the sequences shown.
